Data source: PubChem BioAssay AID504786 (Drosophila RNAi Screening Center, 2011)
Test: 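Knock-downs reducing HIF reporter induction by the iron chelator DFO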 (primary screen). Cells: Drosophila S2 cells with a stable HIF luciferase reporter. Reagent: long dsRNA against Drosophila genes, about 0.2 µg dsRNA per well of a 384-well plate. Duration: three days of knock-down, then 20 h of DFO before reading. Treatment: desferrioxamine (DFO) at 100 µM, an iron chelator that mimics hypoxia, for 20 h. Measurement: 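HIF reporter luminescence in cells given 100 µM DFO for 20 h, using the mouse ldh-a hypoxia-response element, scored as per-plate z-scores; higher means greater loss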. Scale: z-score: higher = stronger loss of HIF reporter signal.
The screen tested about 21,000 reagents; below is an unselected part of those with a known target gene and a result. 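Primary screen; positive scores mean lost reporter signal, so the sign may be inverted from the usual convention.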 No sequences are given here.

CG14314 (GeneID 42179) [DRSC14793] → z-score, replicate 1: -1; z-score, replicate 2: -0.1
CG4988 (GeneID 34586) [DRSC02800] → z-score, replicate 1: -0.1; z-score, replicate 2: -0.1
CG31709 (GeneID 261620) [DRSC01081] → z-score, replicate 1: -0.3; z-score, replicate 2: -0.5
CG32590 (GeneID 318103) [DRSC19594] → z-score, replicate 1: -0.3; z-score, replicate 2: -0.6
Acox57D-p (GeneID 37445) [DRSC04560] → z-score, replicate 1: -0.1; z-score, replicate 2: 0.3
Mtch (GeneID 38026) [DRSC08679] → z-score, replicate 1: -0.2; z-score, replicate 2: -0.2
tyf (GeneID 31363) [DRSC18382] → z-score, replicate 1: -0.2; z-score, replicate 2: -0.3
CG11498 (GeneID 43585) [DRSC14315] → z-score, replicate 1: -0.4; z-score, replicate 2: 0.5
CG13689 (GeneID 33241) [DRSC00358] → z-score, replicate 1: -0.3; z-score, replicate 2: 0
flap (GeneID 37519) [DRSC03918] → z-score, replicate 1: 0.2; z-score, replicate 2: 0
flap (GeneID 37519) [DRSC04087] → z-score, replicate 1: -0.3; z-score, replicate 2: -0.1
CG11425 (GeneID 40472) [DRSC11657] → z-score, replicate 1: -0.1; z-score, replicate 2: 0
Cyp6a15Psi (GeneID 3772535) [DRSC07377] → z-score, replicate 1: -0.1; z-score, replicate 2: 0.1
CG15772 (GeneID 31498) [DRSC18078] → z-score, replicate 1: -0.2; z-score, replicate 2: 0.2
CG32683 (GeneID 31970) [DRSC17990] → z-score, replicate 1: -0.1; z-score, replicate 2: 0.3
CG32683 (GeneID 31970) [DRSC18232] → z-score, replicate 1: -0.2; z-score, replicate 2: 0.4
CG32683 (GeneID 31970) [DRSC18233] → z-score, replicate 1: 0; z-score, replicate 2: 0.4
